Data from the supplement of paper PMC12542422.
Structures can show the parent of a compound that is named as a salt. ± gives the standard deviation of the averaged measurements. Some of the results follow. Values are raw readings; no control value is given beside them.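 Ribosome-assembly readouts in HeLa cells were imaged via ENP1 staining, with or without export block, or inducible tagged ribosomal protein reporters. Machine learning classified per-cell signal location versus solvent (DMSO) controls. Hits surpassed the DMSO false-positive mean by five standard deviations and were visually confirmed; three biological replicates.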

These molecules were tested on HeLa RPS2-YFP reporter (assay: fraction of reporter-positive cells with nuclear (nucleolar or nucleolar/nucleoplasmic) RPS2-YFP (MainHitrate); higher = more cells with nucleolar/nuclear readout signal (for ENP1 -LMB: less RNAPI inhibition; for +LMB ENP1 and RP reporters: stronger nuclear/nucleolar retention, i.e. ribosome biogenesis defect)). Conditions: concentration: 1 µM; treatment time: 6 h.

Compound	fraction of reporter-positive cells with nuclear
CN(C)CCCN1c2ccccc2CCc2ccc(Cl)cc21 [Clomipramine hydrochloride (Anafranil)]	0.132 ± 0.13
CCCCCCCCCCCCCCCC[N+](C)(C)C [Cetrimonium Bromide]	0.129 ± 0.12
CCOc1nc2cccc(C(=O)OCc3oc(=O)oc3C)c2n1Cc1ccc(-c2ccccc2-c2noc(=O)[nH]2)cc1 [Azilsartan Medoxomil (TAK-491)]	0.136 ± 0.094
O=C1CCc2ccc(OCCCCN3CCN(c4cccc(Cl)c4Cl)CC3)cc2N1 [Aripiprazole (Abilify)]	0.107 ± 0.092
Oc1ccc(/C=C/c2cc(O)cc(O)c2)cc1 [Resveratrol]	0.105 ± 0.077
COc1ccc(-n2nc(C(N)=O)c3c2C(=O)N(c2ccc(N4CCCCC4=O)cc2)CC3)cc1 [Apixaban]	0.108 ± 0.08
Nc1ccc(/N=N/c2ccccc2)c(N)n1 [Phenazopyridine HCl]	0.148 ± 0.089
N#Cc1ccc(C(c2ccc(C#N)cc2)n2cncn2)cc1 [Letrozole]	0.121 ± 0.097
CCN(CC)CCOc1ccc(C(=C(Cl)c2ccccc2)c2ccccc2)cc1 [Clomifene citrate (Serophene)]	0.12 ± 0.096

An excerpt of these results, as labelled records.
COc1ccc(-n2nc(C(N)=O)c3c2C(=O)N(c2ccc(N4CCCCC4=O)cc2)CC3)cc1 [Apixaban]
  fraction of reporter-positive cells with nuclear: 0.108 ± 0.08
Nc1ccc(/N=N/c2ccccc2)c(N)n1 [Phenazopyridine HCl]
  fraction of reporter-positive cells with nuclear: 0.148 ± 0.089
